No constants are given. Whether binding was seen depends on the method and setting. Binding seen in cells or lysates may run through a third protein. Some results given as binding are weak or reduced against the parent protein; the word gives no strength.
Biological target: Heat Shock 70-kDa Protein 8 (HSPA8) (mouse (endogenous in NIH3T3)) (UniProt P63017)
Experiment: co-IP; NIH3T3 cells (OGD 4 h; negative control siRNA or siHSPA8) immunoprecipitated using HSPA8 antibody (by the legend); bound proteins by Western blot

Chains of the proteins cited; added tags and fusions are not shown.
UniProt P63017: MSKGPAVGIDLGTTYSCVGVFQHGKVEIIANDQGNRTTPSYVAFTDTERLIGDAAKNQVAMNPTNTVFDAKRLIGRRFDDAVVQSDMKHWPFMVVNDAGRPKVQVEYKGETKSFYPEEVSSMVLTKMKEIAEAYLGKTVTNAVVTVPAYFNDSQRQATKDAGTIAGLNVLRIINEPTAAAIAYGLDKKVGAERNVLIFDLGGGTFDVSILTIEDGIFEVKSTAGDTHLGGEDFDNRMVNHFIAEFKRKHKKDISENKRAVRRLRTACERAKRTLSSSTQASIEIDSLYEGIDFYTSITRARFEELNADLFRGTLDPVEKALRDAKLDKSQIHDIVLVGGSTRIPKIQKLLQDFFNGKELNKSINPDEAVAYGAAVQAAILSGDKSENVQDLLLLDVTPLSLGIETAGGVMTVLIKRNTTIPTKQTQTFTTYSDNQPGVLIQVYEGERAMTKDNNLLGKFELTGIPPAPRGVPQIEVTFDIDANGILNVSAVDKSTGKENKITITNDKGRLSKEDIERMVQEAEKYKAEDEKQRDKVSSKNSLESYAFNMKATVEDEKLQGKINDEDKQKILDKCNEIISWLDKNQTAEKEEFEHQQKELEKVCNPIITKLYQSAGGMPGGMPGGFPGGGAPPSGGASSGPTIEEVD

B1: Aldehyde dehydrogenase 2 (ALDH2) (enzyme, mouse (endogenous in NIH3T3), UniProt P47738 20-519, looked up)
chain: SAAATSAVPAPNHQPEVFCNQIFINNEWHDAVSRKTFPTVNPSTGEVICQVAEGNKEDVDKAVKAARAAFQLGSPWRRMDASDRGRLLYRLADLIERDRTYLAALETLDNGKPYVISYLVDLDMVLKCLRYYAGWADKYHGKTIPIDGDFFSYTRHEPVGVCGQIIPWNFPLLMQAWKLGPALATGNVVVMKVAEQTPLTALYVANLIKEAGFPPGVVNIVPGFGPTAGAAIASHEGVDKVAFTGSTEVGHLIQVAAGSSNLKRVTLELGGKSPNIIMSDADMDWAVEQAHFALFFNQGQCCCAGSRTFVQENVYDEFVERSVARAKSRVVGNPFDSRTEQGPQVDETQFKKILGYIKSGQQEGAKLLCGGGAAADRGYFIQPTVFGDVKDGMTIAKEEIFGPVMQILKFKTIEEVVGRANDSKYGLAAAVFTKDLDKANYLSQALQAGTVWINCYDVFGAQSPFGGYKMSGSGRELGEYGLQAYTEVKTVTVKVPQKNS
notes: Aldehyde dehydrogenase 2, mitochondrial, endogenous in the mouse fibroblast line NIH3T3; Seen as dimer and tetramer after DSS cross-linking; also called mitochondrial ALDH2; mitochondrial aldehyde dehydrogenase; source: endogenous, NIH3T3 lysate
- binding: binds

— PMC10812545, “The Binding of HSPA8 and Mitochondrial ALDH2 Mediates Oxygen-Glucose Deprivation-Induced Fibroblast Senescence” (Antioxidants, 2023)
